This assay relates to P335 leukemia ip, BDF1 mice, survival T/C %. The experiment in a line: NCI In Vivo Anticancer Drug Screen. Data for tumor model P335 Leukemia (intraperitoneal) in B6D2F1 (BDF1) mice. The conditions noted are these: T/C endpoint: mean survival time, schedule: Q01DX Z (ip), higher T/C = longer survival. As to the method: The antitumor activity of compounds was measured in mice bearing transplantable tumors. Survival or tumor size were measured and the results are expressed as the measurement made in the treated group (T) divided by the measurement made in the vehicle treated control group (C). The tumor model used in this assay is P335 Leukemia (intraperitoneal) in B6D2F1 (BDF1) mice

The list shows only some results of the screen, not a fair sample: its compounds were picked by chemical class. Other doses and runs of a compound may be missing. T/C gives the treated animals as a percentage of the vehicle group. Some entries give survivors of the animals treated and no T/C: the source files T/C as zero there, which appears to mark a toxic dose or a test without result, not a measured value. Some doses without a T/C left all or most animals alive at the check, yet need not have been tolerated: the source hardly ever lists a survival T/C far under the control, and the zero likely stands for such cases as well. Survivors were counted at the toxicity check, usually on the fifth day, unless a day is given; later deaths do not show. Schedules are NCI's codes, read here as Q, the interval in days (D) or hours (H), X, the number of doses. Some schedule codes hold Z or #, which are not explained here. For survival time, the PubChem record calls one and a half times the control and up active, and a quarter to a half above the control has no call in these data; cut-offs in other NCI protocols can differ. Some entries were tested several times; the values are given in rising order.

We go through 3 compounds from PubChem BioAssay AID224 (DTP/NCI, 2004).

In the case of `CC[C@H](C)[C@@H]1NC(=O)/C(=C(\C)O)C1=O`, the survivor count reads like this: (dose: 25.0 mg/kg/injection, vehicle: water) 6 of 6; (dose: 50.0 mg/kg/injection, vehicle: water) 4 of 6; (dose: 100.0 mg/kg/injection, vehicle: water) 1 of 6; (dose: 200.0 mg/kg/injection, vehicle: water) 0 of 6.

On to `Cc1[nH]c(=O)[nH]c(=O)c1N(CCCl)CCCl`, for which the T/C (dose: 0.25 mg/kg/injection, vehicle: carboxymethylcellulose (CMC)) was 102 and 119 % of control; the T/C (dose: 0.5 mg/kg/injection, vehicle: carboxymethylcellulose (CMC)) is 90 and 108 % of control; the T/C (dose: 1.0 mg/kg/injection, vehicle: carboxymethylcellulose (CMC)) was 116, 120, 145 % of control; the T/C (dose: 2.0 mg/kg/injection, vehicle: carboxymethylcellulose (CMC)) is on record as 92, 146, 161 % of control. For the same compound, the survivor count runs as follows: (dose: 4.0 mg/kg/injection, vehicle: carboxymethylcellulose (CMC)) 5 of 6; (dose: 8.0 mg/kg/injection, vehicle: carboxymethylcellulose (CMC)) 4 of 6.

In the case of `CN(N=O)C(=N)N[N+](=O)[O-]`, the survivor count (dose: 9.4 mg/kg/injection, vehicle: methylcellulose (MC)) was 6 of 6; the survivor count (dose: 18.75 mg/kg/injection, vehicle: methylcellulose (MC)) was 6 of 6; the survivor count (dose: 75.0 mg/kg/injection, vehicle: methylcellulose (MC)) is recorded as 6 of 6. For the same compound, the T/C (dose: 37.5 mg/kg/injection, vehicle: methylcellulose (MC)) is 101 % of control.
